According to patent US20140322129A1 (Genentech, published 2014):
Results are given in words; binding and its absence hold for the method and conditions named. Some entries that bind do so weakly or less than the wild type.

Chains of the proteins cited; added tags and fusions are not shown. Lines headed by an entry give the natural chain unless they say otherwise; changes in a name come on top.
UniProt Q7TSP5: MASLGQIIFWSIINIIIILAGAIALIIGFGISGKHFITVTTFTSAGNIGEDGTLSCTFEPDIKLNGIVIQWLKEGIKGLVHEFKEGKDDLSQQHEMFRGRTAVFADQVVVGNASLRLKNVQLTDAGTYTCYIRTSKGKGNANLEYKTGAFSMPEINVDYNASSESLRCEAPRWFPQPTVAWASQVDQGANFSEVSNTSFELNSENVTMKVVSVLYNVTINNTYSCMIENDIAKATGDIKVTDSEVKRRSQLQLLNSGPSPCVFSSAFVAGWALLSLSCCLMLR

Target: mouse B7-H4 (mouse) (UniProt Q7TSP5)
Experiment: FACS, hybridoma clone on stable cell line expressing recombinant mouse B7-H4

| binding | Binder |
| --- | --- |
| binds | ch22C10 (antibody, human IgG1, V domains shown, also called chimeric 22C10; ch2210) VH: QVQLQQPGAELVKPGTSVKLSCKASGYTFTNFWIHWVIQRPGQGLEWIGEIDPSDSYTNYNQKFKGKATLTVDKSSNTAYMQLSSLTSEDSAVYYCSREITTVDYWGQGTTLTVSS VL: QIVLTQSPTIMSASPGEKVTLTCSATSSISYMHWYQQKPGTSPKGWIYDTSKLAHGVPARFSGSGSGTSYSLTISSMEAEDAATYYCHQRRSYPFTFGSGTKLEIK |
| binds | ch9B9 (antibody, human IgG1, V domains shown, also called chimeric 9B9) VH: QVQLQQSGAELMKPGASVKMSCKATGYTFSSYWIEWVKQRPGHGLEWIGEILPGTSITTYNAKFKVKATFTADTSSNTAYMQLSSLTSEDSAVYFCARYYFGSSSFYFDYWGQGTSLTVSS VL: QAVVTQESALTTSPGDTVTLTCRSSTGAVTTSNYANWVQEKPDHLFTGLIGGTNNRVPGVPARFSGSLIGDKAALTITGAQTEDEAMYFCALWYNNHWVFGGGTKLE |
| binds | murine 1D11 (antibody, V domains shown) VH: QVQLQQSGAELVRPGTSVKMSCKASGYTFTSYWIGWAKQRPGHGFEWIGDIYPGGGYTNYNEKFKGKATLTADKSSSTAYMQFSSLTSEDSAIYYCARLDGSSYRGAMDSWGQGTSITVSS VL: DIQMTQSPSSLSASLGGKVTITCKASQGFNKYVAWYQHKPGQCPRLLIHYTSTLQPGIPARFSGSGSGRDYSFSISNLEPEDSATYFCLQYGNLLYAFGGGTKLEIKR |
